This note sets out measurements from publication PMC5688089.

No constants are given. Whether binding was seen depends on the method and setting. In cells and extracts the contact can be indirect. Some binding calls cover weakened binding; strength is not graded here.

This assay addresses T1, RANK (receptor activator of NF-κB) (mouse (endogenous in BMMs)) (UniProt O35305).
T1 sequence: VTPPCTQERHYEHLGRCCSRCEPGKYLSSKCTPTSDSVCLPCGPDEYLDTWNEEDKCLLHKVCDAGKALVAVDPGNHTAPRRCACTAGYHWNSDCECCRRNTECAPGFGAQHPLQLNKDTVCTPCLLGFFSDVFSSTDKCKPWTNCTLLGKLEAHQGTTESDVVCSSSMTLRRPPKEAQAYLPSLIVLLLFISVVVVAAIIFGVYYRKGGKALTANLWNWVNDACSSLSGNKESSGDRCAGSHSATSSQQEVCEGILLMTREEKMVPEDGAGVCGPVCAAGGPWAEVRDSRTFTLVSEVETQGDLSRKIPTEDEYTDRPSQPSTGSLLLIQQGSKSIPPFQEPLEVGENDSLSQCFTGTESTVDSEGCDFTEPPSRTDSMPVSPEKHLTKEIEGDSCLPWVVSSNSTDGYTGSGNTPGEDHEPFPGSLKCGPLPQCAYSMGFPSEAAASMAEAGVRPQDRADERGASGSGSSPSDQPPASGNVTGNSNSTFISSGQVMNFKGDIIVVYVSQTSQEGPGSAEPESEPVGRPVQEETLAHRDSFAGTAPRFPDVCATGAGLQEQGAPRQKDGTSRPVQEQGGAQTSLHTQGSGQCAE
The experiment in a line: co-IP; endogenous proteins from lysates of mouse BMMs (WT or DJ-1 KO) starved 5 h and stimulated with RANKL (100 ng/ml), with or without H2O2 (100 μM); lysis in 20 mM HEPES pH 7.5, 150 mM NaCl, 1% Nonidet P-40, 60 mM octyl β-glucoside; overnight at 4 °C with specific antibodies, protein A/G-agarose; immunoblot. Background: In western blotting, separated proteins are transferred to a membrane and probed.

B1: TNF receptor-associated factor 6 (TRAF6) (protein, UniProt P70196 1-530)
chain: MSLLNCENSCGSSQSSSDCCAAMAASCSAAVKDDSVSGSASTGNLSSSFMEEIQGYDVEFDPPLESKYECPICLMALREAVQTPCGHRFCKACIIKSIRDAGHKCPVDNEILLENQLFPDNFAKREILSLTVKCPNKGCLQKMELRHLEDHQVHCEFALVNCPQCQRPFQKCQVNTHIIEDCPRRQVSCVNCAVSMAYEEKEIHDQSCPLANIICEYCGTILIREQMPNHYDLDCPTAPIPCTFSVFGCHEKMQRNHLARHLQENTQLHMRLLAQAVHNVNLALRPCDAASPSRGCRPEDPNYEETIKQLESRLVRQDHQIRELTAKMETQSMYVGELKRTIRTLEDKVAEMEAQQCNGIYIWKIGNFGMHLKSQEEERPVVIHSPGFYTGRPGYKLCMRLHLQLPTAQRCANYISLFVHTMQGEYDSHLPWPFQGTIRLTILDQSEALIRQNHEEVMDAKPELLAFQRPTIPRNPKGFGYVTFMHLEALRQGTFIKDDTLLVRCEVSTRFDMGGLRKEGFQPRSTDAGV
As to B1, the binding entry is given as “binds”.
